Literature values as cited in patent publication US20110183904A1, “METHODS AND COMPOSITIONS FOR ALTERING BEHAVIOR ASSOCIATED WITH AUTISM SPECTRUM DISORDER” (The Children's Mercy Hospital, priority 2008, published 2011).
For at least one compound, name, drawing or mass did not settle the structure.

System: Gαs in PBMCs
Settings: cited from earlier work

SMILES: [Li] [lithium]
- Gαs mRNA synthesis and protein levels (15 subjects with bipolar disorder (Karege et al 2000)): decreased
- Gαs levels in PBMCs under treatment (bipolar illness and schizophrenia): decrease
